Assay results from the supplement of paper PMC8728848.
This is one part of the list.

Experiments:
Test in all cases: glycan array binding signal (z-score within array); higher = stronger binding
Details in all cases: glycan notation: IUPAC condensed, linker removed
Gal(a1-3)Gal(b1-3)GlcNAc = molecular target: Gal(a1-3)Gal(b1-3)GlcNAc
Method in brief: (§1)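 The Consortium for Functional Glycomics database supplied 3228 glycan arrays, of which those lacking an available protein sequence were dropped. The binding signal, a within-array Z-score, was averaged across arrays of the same protein sequence and across linkers. Negative scores can be read as non-binding.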

[1] = molecular target: Gal(a1-3)Gal(b1-3)GlcNAc(b1-2)Man
Method in brief: as §1

[2] = molecular target: Gal(a1-3)Gal(b1-3)GlcNAc(b1-2)Man(a1-3)[Gal(a1-3)Gal(b1-3)GlcNAc(b1-2)Man(a1-6)]Man(b1-4)GlcNAc(b1-4)GlcNAc
Method in brief: as §1

[3] = molecular target: Gal(a1-3)Gal(b1-3)GlcNAc(b1-3)GalNAc
Method in brief: as §1

[4] = molecular target: Gal(a1-3)Gal(b1-3)GlcNAc(b1-6)GalNAc
Method in brief: as §1

[5] = molecular target: Gal(a1-3)Gal(b1-3)[Fuc(a1-4)]GlcNAc(b1-2)Man(a1-3)[Gal(a1-3)Gal(b1-3)[Fuc(a1-4)]GlcNAc(b1-2)Man(a1-6)]Man(b1-4)GlcNAc(b1-4)GlcNAc
Method in brief: as §1

Gal(a1-3)Gal(b1-4)Glc = molecular target: Gal(a1-3)Gal(b1-4)Glc
Method in brief: as §1

Gal(a1-3)Gal(b1-4)GlcNAc = molecular target: Gal(a1-3)Gal(b1-4)GlcNAc
Method in brief: as §1

[6] = molecular target: Gal(a1-3)Gal(b1-4)GlcNAc(b1-2)Man
Method in brief: as §1

[7] = molecular target: Gal(a1-3)Gal(b1-4)GlcNAc(b1-2)Man(a1-3)[Gal(a1-3)Gal(b1-4)GlcNAc(b1-2)Man(a1-6)]Man(b1-4)GlcNAc(b1-4)GlcNAc
Method in brief: as §1

[8] = molecular target: Gal(a1-3)Gal(b1-4)GlcNAc(b1-3)GalNAc
Method in brief: as §1

[9] = molecular target: Gal(a1-3)Gal(b1-4)GlcNAc(b1-6)GalNAc
Method in brief: as §1

[10] = molecular target: Gal(a1-3)Gal(b1-4)[Fuc(a1-3)]GlcNAc
Method in brief: as §1

[11] = molecular target: Gal(a1-3)Gal(b1-4)[Fuc(a1-3)]GlcNAc(b1-2)Man(a1-3)[Gal(a1-3)Gal(b1-4)[Fuc(a1-3)]GlcNAc(b1-2)Man(a1-6)]Man(b1-4)GlcNAc(b1-4)GlcNAc
Method in brief: as §1

Gal(a1-3)GalNAc = molecular target: Gal(a1-3)GalNAc
Method in brief: as §1

[12] = molecular target: Gal(a1-3)[Gal(a1-4)]Gal(b1-4)GlcNAc
Method in brief: as §1

[13] = molecular target: Gal(a1-4)Gal(b1-3)GlcNAc(b1-2)Man(a1-3)[Gal(a1-4)Gal(b1-3)GlcNAc(b1-2)Man(a1-6)]Man(b1-4)GlcNAc(b1-4)GlcNAc
Method in brief: as §1

Gal(a1-4)Gal(b1-4)Glc = molecular target: Gal(a1-4)Gal(b1-4)Glc
Method in brief: as §1

Gal(a1-4)Gal(b1-4)GlcNAc = molecular target: Gal(a1-4)Gal(b1-4)GlcNAc
Method in brief: as §1

[14] = molecular target: Gal(a1-4)Gal(b1-4)GlcNAc(b1-2)Man(a1-3)[Gal(a1-4)Gal(b1-4)GlcNAc(b1-2)Man(a1-6)]Man(b1-4)GlcNAc(b1-4)GlcNAc
Method in brief: as §1

[15] = molecular target: Gal(a1-4)Gal(b1-4)GlcNAc(b1-3)Gal(b1-4)Glc
Method in brief: as §1

Gal(a1-4)GlcNAc = molecular target: Gal(a1-4)GlcNAc
Method in brief: as §1

Gal(a1-6)Glc = molecular target: Gal(a1-6)Glc
Method in brief: as §1

Gal(b1-2)Gal = molecular target: Gal(b1-2)Gal
Method in brief: as §1

Gal(b1-3)Gal = molecular target: Gal(b1-3)Gal
Method in brief: as §1

Gal(b1-3)Gal(b1-4)GlcNAc = molecular target: Gal(b1-3)Gal(b1-4)GlcNAc
Method in brief: as §1

Gal(b1-3)GalNAc = molecular target: Gal(b1-3)GalNAc
Method in brief: as §1

[16] = molecular target: Gal(b1-3)GalNAc(a1-3)[Fuc(a1-2)]Gal(b1-4)Glc
Method in brief: as §1

[17] = molecular target: Gal(b1-3)GalNAc(a1-3)[Fuc(a1-2)]Gal(b1-4)GlcNAc
Method in brief: as §1

Gal(b1-3)GalNAc(b1-3)Gal = molecular target: Gal(b1-3)GalNAc(b1-3)Gal
Method in brief: as §1

[18] = molecular target: Gal(b1-3)GalNAc(b1-3)Gal(a1-4)Gal(b1-4)Glc
Method in brief: as §1

[19] = molecular target: Gal(b1-3)GalNAc(b1-4)Gal(b1-4)Glc
Method in brief: as §1

[20] = molecular target: Gal(b1-3)GalNAc(b1-4)[Neu5Ac(a2-3)]Gal(b1-4)Glc
Method in brief: as §1

Gal(b1-3)GlcNAc = molecular target: Gal(b1-3)GlcNAc
Method in brief: as §1

[21] = molecular target: Gal(b1-3)GlcNAc(a1-3)Gal(b1-4)GlcNAc
Method in brief: as §1

[22] = molecular target: Gal(b1-3)GlcNAc(a1-6)Gal(b1-4)GlcNAc
Method in brief: as §1

Gal(b1-3)GlcNAc(b1-2)Man = molecular target: Gal(b1-3)GlcNAc(b1-2)Man
Method in brief: as §1

[23] = molecular target: Gal(b1-3)GlcNAc(b1-2)Man(a1-3)[Gal(b1-3)GlcNAc(b1-2)Man(a1-6)]Man(b1-4)GlcNAc(b1-4)GlcNAc
Method in brief: as §1

B1: SJCP1531 (Schistosoma japonicum) (protein)
chain: MFKVRIINLVNISTVLLLINLLQTKSQVNVEQLVTVLEVNIKAQLKNKTTEVLVEWNPLYQDNSMPEYRKLLDETCKLFLPFVNEKVPPSTYGGECTNANFSEAPQDGSYSRVNAELRLIYKYSDNPQIQTDRLQDDLNDREEFITSESSFVAYNPKFTVKIEKLFIPISESQTTPPPTTAKNDASKKDDDDNGGEDSKAPIDTFAMTASGNKGKKDDDDNGGEDSKAPIDTFAMTASGSKDERSTWTIIGIITLVVLIFVVIGGGITVFVKRC
Gal(a1-3)Gal(b1-3)GlcNAc
  glycan array binding signal (z-score): -1.22
[1]
  glycan array binding signal (z-score): -0.185
[2]
  glycan array binding signal (z-score): 1.01
[3]
  glycan array binding signal (z-score): -1.82
[4]
  glycan array binding signal (z-score): -0.915
[5]
  glycan array binding signal (z-score): 0.362
Gal(a1-3)Gal(b1-4)Glc
  glycan array binding signal (z-score): -0.638
Gal(a1-3)Gal(b1-4)GlcNAc
  glycan array binding signal (z-score): -0.844
[6]
  glycan array binding signal (z-score): -0.54
[7]
  glycan array binding signal (z-score): 1.01
[8]
  glycan array binding signal (z-score): -0.726
[9]
  glycan array binding signal (z-score): -0.651
[10]
  glycan array binding signal (z-score): -0.201
[11]
  glycan array binding signal (z-score): 0.047
Gal(a1-3)GalNAc
  glycan array binding signal (z-score): -0.507
[12]
  glycan array binding signal (z-score): 0.766
[13]
  glycan array binding signal (z-score): 0.323
Gal(a1-4)Gal(b1-4)Glc
  glycan array binding signal (z-score): -0.592
Gal(a1-4)Gal(b1-4)GlcNAc
  glycan array binding signal (z-score): 1.87
[14]
  glycan array binding signal (z-score): 2.24
[15]
  glycan array binding signal (z-score): 1.03
Gal(a1-4)GlcNAc
  glycan array binding signal (z-score): -0.402
Gal(a1-6)Glc
  glycan array binding signal (z-score): -1.31
Gal(b1-2)Gal
  glycan array binding signal (z-score): -0.368
Gal(b1-3)Gal
  glycan array binding signal (z-score): 3.29
Gal(b1-3)Gal(b1-4)GlcNAc
  glycan array binding signal (z-score): 0.064
Gal(b1-3)GalNAc
  glycan array binding signal (z-score): 0.084
[16]
  glycan array binding signal (z-score): 0.216
[17]
  glycan array binding signal (z-score): 0.345
Gal(b1-3)GalNAc(b1-3)Gal
  glycan array binding signal (z-score): -0.062
[18]
  glycan array binding signal (z-score): -0.436
[19]
  glycan array binding signal (z-score): -0.577
[20]
  glycan array binding signal (z-score): 0.895
Gal(b1-3)GlcNAc
  glycan array binding signal (z-score): 0.101
[21]
  glycan array binding signal (z-score): -0.336
[22]
  glycan array binding signal (z-score): -0.922
Gal(b1-3)GlcNAc(b1-2)Man
  glycan array binding signal (z-score): 1.37
[23]
  glycan array binding signal (z-score): -0.297
